Record: PubChem BioAssay AID1224830 (NIAID, 2016)
The whole screen tested about 18,000 reagents; shown is an unselected part. About 2,900 of them (16%) count as active. 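Calls are made per well; low scores hint the gene aids the LPS response, high scores that it dampens it.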 Repeated entries: four replicate wells of each siRNA pool.

Test: 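Host factors that control LPS-induced TNF expression in human macrophages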 (primary screen)
Cells: human THP-1 monocytic leukaemia cells, TNF dual-luciferase reporter clone, PMA-differentiated to macrophage-like cells
Knock-down reagent: siRNA pool against human genes, 50 nM
Time to read-out: LPS for 4 h, given about 3 days after siRNA transfection
Treatment: bacterial LPS (TLR4 ligand), 10 ng/ml
Measurement: 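TNF firefly reporter luminescence divided by renilla, normalised to the plate median, then turned into a robust z-score for each replicate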
Direction: TNF reporter robust z-score: higher = stronger TNF reporter response to LPS
Call rule: 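a well is active when its z-score exceeds 2.8 or falls below -1.5; control wells carry no call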

gene symbol | TNF reporter robust z-score | call
TALDO1 (transaldolase 1) | 0.88 | inactive
TALDO1 (transaldolase 1) | 1.33 | inactive
TALDO1 (transaldolase 1) | 0.54 | inactive
TALDO1 (transaldolase 1) | 0.24 | inactive
CTDSP1 (CTD small phosphatase 1) | -1.57 | active
CTDSP1 (CTD small phosphatase 1) | -1.52 | active
CTDSP1 (CTD small phosphatase 1) | -1.34 | inactive
AMFR (autocrine motility factor receptor) | 0.15 | inactive
AMFR (autocrine motility factor receptor) | 0.48 | inactive
AMFR (autocrine motility factor receptor) | 1.3 | inactive
AMFR (autocrine motility factor receptor) | 0.19 | inactive
IFT81 (intraflagellar transport 81) | -0.59 | inactive
IFT81 (intraflagellar transport 81) | -1.09 | inactive
IFT81 (intraflagellar transport 81) | -0.06 | inactive
ANKRD54 (ankyrin repeat domain 54) | -0.54 | inactive
ANKRD54 (ankyrin repeat domain 54) | -0.79 | inactive
ANKRD54 (ankyrin repeat domain 54) | -1.14 | inactive
ANKRD54 (ankyrin repeat domain 54) | -1.04 | inactive
IZUMO1R (IZUMO1 receptor, JUNO) | -0.12 | inactive
IZUMO1R (IZUMO1 receptor, JUNO) | -0.17 | inactive
IZUMO1R (IZUMO1 receptor, JUNO) | 0.42 | inactive
IZUMO1R (IZUMO1 receptor, JUNO) | 0.95 | inactive
PEX12 (peroxisomal biogenesis factor 12) | 0.12 | inactive
PEX12 (peroxisomal biogenesis factor 12) | 0.02 | inactive
PEX12 (peroxisomal biogenesis factor 12) | 0.41 | inactive
PEX12 (peroxisomal biogenesis factor 12) | -0.27 | inactive

More results:
gene symbol | TNF reporter robust z-score | call
NEDD9 | 0.89 | inactive
NEDD9 | -0.57 | inactive
NEDD9 | 0.29 | inactive
NEDD9 | -0.17 | inactive
CLASRP (CLK4 associating serine/arginine rich protein) | -0.78 | inactive
CLASRP (CLK4 associating serine/arginine rich protein) | -0.54 | inactive
CLASRP (CLK4 associating serine/arginine rich protein) | 2.07 | inactive
ZNF614 (zinc finger protein 614) | 0.64 | inactive
ZNF614 (zinc finger protein 614) | -0.84 | inactive
ZNF614 (zinc finger protein 614) | -1.02 | inactive
ZNF614 (zinc finger protein 614) | 0.48 | inactive
JRKL (JRK like) | -0.37 | inactive
JRKL (JRK like) | 0.39 | inactive
JRKL (JRK like) | -0.07 | inactive
JRKL (JRK like) | 0.07 | inactive
DOHH (deoxyhypusine hydroxylase) | -0.58 | inactive
DOHH (deoxyhypusine hydroxylase) | -0.65 | inactive
DOHH (deoxyhypusine hydroxylase) | -0.51 | inactive
DOHH (deoxyhypusine hydroxylase) | -0.38 | inactive
H4C15 (H4 clustered histone 15) | -0.28 | inactive
H4C15 (H4 clustered histone 15) | 0.22 | inactive
H4C15 (H4 clustered histone 15) | -0.11 | inactive
H4C15 (H4 clustered histone 15) | -0.56 | inactive
DBF4 (DBF4-CDC7 kinase regulatory subunit) | 1.83 | inactive
DBF4 (DBF4-CDC7 kinase regulatory subunit) | 0.5 | inactive
DBF4 (DBF4-CDC7 kinase regulatory subunit) | 0.94 | inactive
DBF4 (DBF4-CDC7 kinase regulatory subunit) | 0.4 | inactive
POLR3GL (RNA polymerase III subunit GL) | -1.55 | active
POLR3GL (RNA polymerase III subunit GL) | -0.71 | inactive
POLR3GL (RNA polymerase III subunit GL) | 0.15 | inactive
POLR3GL (RNA polymerase III subunit GL) | -0.08 | inactive
COX15 (cytochrome c oxidase assembly factor COX15) | 1.5 | inactive
COX15 (cytochrome c oxidase assembly factor COX15) | 1.4 | inactive
COX15 (cytochrome c oxidase assembly factor COX15) | 0.05 | inactive
COX15 (cytochrome c oxidase assembly factor COX15) | 1.81 | inactive
COX5A (cytochrome c oxidase subunit 5A) | 2.02 | inactive
COX5A (cytochrome c oxidase subunit 5A) | 1.33 | inactive
COX5A (cytochrome c oxidase subunit 5A) | 0.04 | inactive
COX5A (cytochrome c oxidase subunit 5A) | 1.3 | inactive
RALB (RAS like proto-oncogene B) | -0.53 | inactive
RALB (RAS like proto-oncogene B) | 0.93 | inactive
RALB (RAS like proto-oncogene B) | 0.55 | inactive
RALB (RAS like proto-oncogene B) | -0.17 | inactive
NTPCR (nucleoside-triphosphatase, cancer-related) | -0.65 | inactive
NTPCR (nucleoside-triphosphatase, cancer-related) | -0.7 | inactive
NTPCR (nucleoside-triphosphatase, cancer-related) | -0.45 | inactive
NTPCR (nucleoside-triphosphatase, cancer-related) | -1.14 | inactive
PLAUR (plasminogen activator, urokinase receptor) | -0.09 | inactive
PLAUR (plasminogen activator, urokinase receptor) | 0.99 | inactive
PLAUR (plasminogen activator, urokinase receptor) | -0.04 | inactive
PLAUR (plasminogen activator, urokinase receptor) | 0.44 | inactive
